Data source: PubChem BioAssay AID1259286 (Sanger Institute, 2017)
Here is one part, drawn at random, of 794 reagents. Of all reagents, 17 (2.1%) got an active call. 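Calls use knock-down alone only; synergy above 0.15 marked separately; viability seems capped at control level; exposure time not given.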 A number with no mark means an inactive call. Not all columns of the deposit are shown. The record does not give: the amount of reagent, the time to read-out.

Aim: 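Kinome knock-downs lethal on their own or synergistic with anchor drugs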 (primary screen)
System: NCI-H630 human colorectal cancer cells
Reagent: siRNA pool against human genes
Challenge: anchor drugs BYL719 at 1 µM, cetuximab at 5 µg/ml or trametinib at 10 nM, or DMSO vehicle alone; exposure time not given
Measured: 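Viability relative to non-targeting pool wells, averaged over replicates, with robust z-score for knock-down alone and a synergy score for each anchor drug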
Reading the numbers: viability z-score, knock-down alone: higher = more viable cells, weaker knock-down effect
Rule for the call: 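Essential call: robust z-score of viability with siRNA alone lower than -3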
Calls: active = essential when knocked down alone; inactive = not essential alone

What did the screen give for DBF4 [SID135620786]?
viability z-score, knock-down alone: 0.464

For WNK2 [SID56479037], what was measured?
viability z-score, knock-down alone: 0.464

For NRAS [SID134310164], what does the deposit list?
viability z-score, knock-down alone: 0.464

For CDK13 [SID152148828], how do the results read?
viability z-score, knock-down alone: 0.464

For EPHB1 [SID152152600], what does the deposit list?
viability z-score, knock-down alone: 0.464

How did the screen score ACVR2B [SID135620907]?
viability z-score, knock-down alone: 0.464

For STK32C [SID56478811], what was measured?
viability z-score, knock-down alone: 0.464

With IGF1R [SID152153009], what was measured?
viability z-score, knock-down alone: 0.464

With AMHR2 [SID56478996], what was measured?
viability z-score, knock-down alone: 0.464

For HIPK4 [SID135620890], what does the deposit list?
viability z-score, knock-down alone: 0.464

What did the screen give for SLK [SID56478731]?
viability z-score, knock-down alone: 0.464

How did the screen score GATA3 [SID134310077]?
viability z-score, knock-down alone: 0.464

What did the screen give for ETNK1 [SID152152739]?
viability z-score, knock-down alone: -0.308

For PIP4K2A [SID135621253], what does the deposit list?
viability z-score, knock-down alone: -0.433

With FGFR1 [SID135620619], what does the deposit list?
viability z-score, knock-down alone: 0.318

How did the screen score GUCY2EP [SID152152788]?
viability z-score, knock-down alone: 0.464

For JAK3 [SID56478525], what was measured?
viability z-score, knock-down alone: 0.464

How did the screen score TTBK2 [SID152155925]?
viability z-score, knock-down alone: 0.464

For STK39 [SID152151246], how do the results read?
viability z-score, knock-down alone: -0.782
